{"sequences": {"note": "Protein sequences, listed by entry. Tags and fused reporters are not part of them. Lines headed by an entry give the natural chain unless they say otherwise; changes in a name come on top.", "UniProt Q01638": "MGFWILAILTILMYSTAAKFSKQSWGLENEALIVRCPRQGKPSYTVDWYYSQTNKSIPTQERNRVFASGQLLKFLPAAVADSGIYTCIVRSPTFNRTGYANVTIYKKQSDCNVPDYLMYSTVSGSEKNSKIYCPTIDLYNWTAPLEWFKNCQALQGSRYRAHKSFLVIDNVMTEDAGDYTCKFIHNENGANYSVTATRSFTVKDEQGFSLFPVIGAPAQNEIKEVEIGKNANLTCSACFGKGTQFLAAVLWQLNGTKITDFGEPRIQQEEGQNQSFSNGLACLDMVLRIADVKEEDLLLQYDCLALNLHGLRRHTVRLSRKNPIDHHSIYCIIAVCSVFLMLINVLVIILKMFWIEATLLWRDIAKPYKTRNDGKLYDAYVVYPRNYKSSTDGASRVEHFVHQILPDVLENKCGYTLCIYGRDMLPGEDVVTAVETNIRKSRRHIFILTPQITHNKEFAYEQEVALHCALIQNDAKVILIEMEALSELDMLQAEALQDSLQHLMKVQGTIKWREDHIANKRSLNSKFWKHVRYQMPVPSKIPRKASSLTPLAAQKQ"}, "source": "PubChem BioAssay AID1259354", "about": "(Paczesny and Yang Labs, IUPUI and University of Michigan, 2018)", "note": "The campaign covered roughly 78,000 compounds. About 1,800 (2.3%) were called active. The shares of active, inactive and inconclusive entries below differ from those in the screen. No stated cut-off is given here; in the data, active means inhibition above about 30%; inconclusive means mostly about 10% to 28%; inactive means weaker than that.", "data": [{"molecular_target": "Interleukin-1 receptor-like 1 (Homo sapiens) (UniProt Q01638)", "assay": "blocks human ST2 binding to IL-33, primary screen, biochemical, AlphaLISA (AID 1259354)", "conditions": "AlphaLISA ST2-Fc/biotin-IL-33 interaction, 1 h; at 17 µM, active compounds read high", "values": [{"smiles": "O=C(c1ccccc1)N1CCN=C1SCc1c(F)cccc1Cl", "inhibition": "inactive"}, {"smiles": "CCc1ccc(C2CC(c3ccc(Cl)cc3)Nc3nc(N)nn32)cc1", "note": "(stereo not given)", "inhibition": "inconclusive: 22%"}, {"smiles": "CCS(=O)(=O)N1CCN(c2nc(C)cc(N3CCCCC3)n2)CC1", "inhibition": "inconclusive: 15%"}, {"smiles": "O=C(O)c1ccc2c(c1)n(CCN1C[C@H]3CC[C@@H]1C3)c(=O)n2C1CCCCC1", "inhibition": "inconclusive: 16%"}, {"smiles": "O=C(NCc1ccc2c(c1)OCO2)C(Cc1ccccc1)NS(=O)(=O)c1cccs1", "note": "(stereo not given)", "inhibition": "inconclusive: 18%"}, {"smiles": "CCc1cn[nH]c1C1CCN(c2cc(C(C)C)nc(C(F)(F)F)n2)CC1", "inhibition": "inconclusive: 10%"}, {"smiles": "Nc1ccc(Oc2ccc(Cl)cc2)cc1", "inhibition": "active: 37%"}, {"smiles": "COc1ccc(Nc2c3c(nc4ccccc24)CCC3)cc1OC", "inhibition": "inconclusive: 12%"}, {"smiles": "Cc1ncc(CC(=O)NC2CC(=O)N(CCc3ccc(F)cc3)C2)c(=O)[nH]1", "note": "(stereo not given)", "inhibition": "inconclusive: 10%"}, {"smiles": "O=C1Nc2ccccc2C(O)(C(=O)NCCCN2CCCCCC2)N1c1ccccc1", "note": "(stereo not given)", "inhibition": "inactive"}, {"smiles": "COc1ccc(-c2ccc(C(=O)N3CCOc4ccc(CN5CCOCC5)cc4C3)o2)cc1", "inhibition": "inconclusive: 20%"}, {"smiles": "CN1CCN(C(=O)CC[C@@H]2CNC(=O)[C@@H]3C[C@H](NCc4cn(C)c5ccccc45)CN23)CC1", "inhibition": "inactive"}, {"smiles": "Fc1ccccc1CC1CCN(Cc2ccccn2)CC1", "inhibition": "inconclusive: 13%"}, {"smiles": "CC1C(O)CC(c2ccc(Cl)cc2)NC1c1ccc(Cl)cc1", "note": "(stereo not given)", "inhibition": "inactive"}, {"smiles": "CC(C)Cc1cc(C(=O)NCC(C)Oc2cccnc2)n(C)n1", "note": "(stereo not given)", "inhibition": "inactive"}, {"smiles": "COc1ccc(N(C(C)C(N)=O)S(C)(=O)=O)cc1", "note": "(stereo not given)", "inhibition": "inactive"}, {"smiles": "Cc1cccc(NC(=O)CC2SC(=Nc3ccccc3)NC2=O)c1", "note": "(stereo not given)", "inhibition": "inconclusive: 16%"}, {"smiles": "Cc1cccc(NC(=O)N2CCC(n3c(C)nc4cccnc43)CC2)c1C", "inhibition": "inactive"}, {"smiles": "O=C(Nc1ccccc1)Nc1nc2ccccc2s1", "inhibition": "inconclusive: 20%"}, {"smiles": "COc1ccc2nc3oc(C(=O)NCCCN4CCc5ccccc5C4)cc3cc2c1", "inhibition": "inconclusive: 19%"}, {"smiles": "CC(C)Cc1cc(C(=O)N2CCCC3(CN(C)C(=O)O3)C2)on1", "note": "(stereo not given)", "inhibition": "inconclusive: 12%"}, {"smiles": "O=C(NCc1cccnc1)c1ccc(Cl)cc1Cl", "inhibition": "inactive"}, {"smiles": "O=C(C1COc2ccccc2O1)N1CCn2c(nc3ccccc32)C1", "note": "(stereo not given)", "inhibition": "inconclusive: 13%"}, {"smiles": "NC(=O)C1CCN(c2nc(O)c(C3=c4ccccc4=NC3=O)s2)CC1", "inhibition": "inactive"}, {"smiles": "Cc1csc(NC(=O)CSc2nc(-c3cccs3)cc(-c3cccs3)c2C#N)n1", "inhibition": "inconclusive: 13%"}, {"smiles": "O=C(c1ccccn1)N1C[C@@H]2OCC(=O)N(CC3CCCCC3)[C@@H]2C1", "inhibition": "inconclusive: 15%"}, {"smiles": "Cc1cc(N2CCCC2)n2c(nc3ccccc32)c1C#N", "inhibition": "inconclusive: 10%"}, {"smiles": "CC(=O)Cc1nsc(NCc2ccco2)n1", "inhibition": "inactive"}, {"smiles": "C1=C(c2ccccc2)Nc2nnnn2C1c1ccccc1", "note": "(stereo not given)", "inhibition": "inactive"}, {"smiles": "COC(=O)C(NS(=O)(=O)c1ccc2ccccc2c1)C(O)c1ccccc1", "note": "(stereo not given)", "inhibition": "inactive"}, {"smiles": "Cc1nc2c(C(=O)NC3CCCCC3)c[nH]n2c(=O)c1Cc1ccc(F)cc1Cl", "inhibition": "inactive"}, {"smiles": "Cc1ccc(C)c(CN2C(=O)CSc3ccc(C(=O)NCc4cccs4)cc32)c1", "inhibition": "inconclusive: 10%"}, {"smiles": "OC[C@H]1O[C@@H](Oc2ccc3c(c2)OC[C@H]2c4cc5c(cc4O[C@@H]32)OCO5)[C@H](O)[C@@H](O)[C@@H]1O", "inhibition": "inconclusive: 15%"}, {"smiles": "Cn1ccnc1-c1ccc(N2CCc3c([nH]c4ccccc34)C2)nn1", "inhibition": "inconclusive: 14%"}, {"smiles": "CCOC(=O)C1C(=O)C=C(c2ccc(C)cc2)CC1c1cc(OC)ccc1OC", "note": "(stereo not given)", "inhibition": "inconclusive: 11%"}, {"smiles": "CC1CCC(NC(=O)C2CCC(Cn3c(=O)[nH]c4ccsc4c3=O)CC2)CC1", "note": "(stereo not given)", "inhibition": "inconclusive: 14%"}, {"smiles": "Cc1nc2cc(-c3ccccc3)nn2c(C)c1CCC(=O)NCc1ccco1", "inhibition": "inconclusive: 11%"}, {"smiles": "Oc1oc(-c2ccc(Cl)cc2)nc1C=Nc1cc(Cl)ccc1Cl", "inhibition": "inactive"}, {"smiles": "COCC(=O)Nc1cccc(-c2cccc3ccnn23)c1", "inhibition": "inactive"}, {"smiles": "CCN(CC)CCCNC(=O)CSc1cc(=O)n(C)c2ccccc12", "inhibition": "inconclusive: 10%"}, {"smiles": "O=C(COc1ccc([N+](=O)[O-])cc1)Nc1sc2c(c1C(=O)NCC1CCCO1)CCCC2", "note": "(stereo not given)", "inhibition": "inactive"}, {"smiles": "FC(F)(F)C1CN(c2ncnc3ccsc23)CCO1", "note": "(stereo not given)", "inhibition": "inconclusive: 23%"}, {"smiles": "O=C(N1CCN(c2ccc([N+](=O)[O-])cc2)CC1)C12CC3CC(CC(C3)C1)C2", "inhibition": "inconclusive: 14%"}, {"smiles": "COc1ccc(OCC(=O)NC2CC(=O)N(c3cccc(OC)c3)C2)cc1", "note": "(stereo not given)", "inhibition": "inconclusive: 10%"}, {"smiles": "COC(=O)c1ccc(Cn2ccnc2-c2nc[nH]c2C)cc1", "inhibition": "inconclusive: 13%"}, {"smiles": "O=C(C[C@@H]1CCNC[C@@H]1Cc1cc(-c2ccccc2)on1)NCc1cccnc1", "inhibition": "inconclusive: 10%"}, {"smiles": "COc1ccc(-c2nnc(SCc3nnc(-c4ccccc4)o3)n2-c2ccccc2)cc1", "inhibition": "inconclusive: 14%"}, {"smiles": "CC(C)Oc1ccc(C2NC(=O)NC2=O)cc1", "note": "(stereo not given)", "inhibition": "inconclusive: 12%"}, {"smiles": "O=C(NCc1cccnc1)c1cc2nc(-c3ccco3)cc(C(F)(F)Cl)n2n1", "inhibition": "inconclusive: 10%"}, {"smiles": "CCOC(=O)N1CCN(C2CCCN(C(=O)c3ccc(COC)s3)C2)CC1", "note": "(stereo not given)", "inhibition": "inactive"}, {"smiles": "CCOC(=O)N1CCC(NC(=O)C2CC23CCN(C(=O)CCOc2ccccc2)CC3)CC1", "note": "(stereo not given)", "inhibition": "inconclusive: 17%"}, {"smiles": "COc1ccc(Cn2c(CNC(=O)c3cccc(C)c3)nc3cccnc32)cc1", "inhibition": "inactive"}, {"smiles": "CCc1ccccc1-c1cc(CO)ccn1", "inhibition": "inactive"}, {"smiles": "Cc1cccc(=O)n1CCC(=O)N1CCNCC1C(=O)N1CCCC1", "note": "(stereo not given)", "inhibition": "inconclusive: 15%"}, {"smiles": "COc1cc2c(cc1OC)C(C)=NC(C)(C)C2", "inhibition": "inconclusive: 13%"}, {"smiles": "Cc1ccc(-c2nc(C#N)c(N(C)C)o2)cc1", "inhibition": "inconclusive: 24%"}, {"smiles": "COc1cccc(OCc2nc(C(=O)N3CCCCCCC3)co2)c1", "inhibition": "inconclusive: 12%"}, {"smiles": "CC1=C[C@@H](CNC(=O)c2cccnc2)[C@H](C(C)C)C[C@H]1CC(=O)N1CCN(c2ccccn2)CC1", "inhibition": "inconclusive: 12%"}, {"smiles": "O=C(CCc1ccccc1)Nc1c(-c2cccs2)nc2ccccn12", "inhibition": "inactive"}, {"smiles": "CC(C)Cn1cc(C(=O)NC(C)c2ccc3c(c2)OCCO3)c2c3ccccc3n(C)c2c1=O", "note": "(stereo not given)", "inhibition": "inconclusive: 20%"}, {"smiles": "CCNC(=O)COc1cc(C)c(Br)c(C)c1", "inhibition": "inconclusive: 11%"}, {"smiles": "O=C1NC(=O)C(=Cc2ccc(-c3ccccc3F)o2)C(=O)N1", "inhibition": "inconclusive: 24%"}, {"smiles": "Cc1cccc(N2CCN(Cc3ccc(Br)o3)CC2)c1C", "inhibition": "inconclusive: 12%"}, {"smiles": "COc1ccc(C(=O)Nc2cc(N3CCCS3(=O)=O)ccc2C)cc1OC", "inhibition": "inactive"}, {"smiles": "Cc1ncccc1OC1(C(=O)NCCNc2ccccc2)CCNCC1", "inhibition": "inconclusive: 14%"}, {"smiles": "O=C(NCc1cccnc1-n1ccnc1)C1(c2ccccc2)CCCCC1", "inhibition": "inconclusive: 19%"}, {"smiles": "COc1ccc(S(=O)(=O)Nc2cccc(Cl)c2Cl)cc1", "inhibition": "inactive"}, {"smiles": "O=C(CS(=O)(=O)c1cn(Cc2ccc(F)cc2)c2ccccc12)N1CCc2ccccc21", "inhibition": "inactive"}, {"smiles": "COc1ccc(CC(=O)Nc2ccc(C(C)C)cc2)cc1", "inhibition": "inconclusive: 14%"}, {"smiles": "COc1ccc2oc(=Nc3ccccc3F)c(C(=O)Nc3ccccc3)cc2c1", "inhibition": "inconclusive: 18%"}, {"smiles": "COc1cc(OC)c(C2C(C#N)=C(N)Oc3n[nH]c(C)c32)c(OC)c1", "note": "(stereo not given)", "inhibition": "inactive"}, {"smiles": "CC1CN(C2CC(=O)N(c3ccc(Br)cc3Br)C2=O)CC(C)O1", "note": "(stereo not given)", "inhibition": "inactive"}, {"smiles": "OC(C#CC(O)(c1ccccc1)c1ccccc1)c1ccccc1F", "note": "(stereo not given)", "inhibition": "inactive"}, {"smiles": "CCOC(=O)C1CCN(C(=O)c2cn(CC(C)C)c(=O)c3c2c2ccccc2n3C)CC1", "inhibition": "inconclusive: 10%"}, {"smiles": "CC(C)(C)OC(=O)NC(Cc1ccccc1)C(=O)O", "note": "(stereo not given)", "inhibition": "inconclusive: 13%"}, {"smiles": "COc1ccc2nc(NS(=O)(=O)Cc3ccccc3)sc2c1", "inhibition": "inactive"}, {"smiles": "COc1cc(NC(=O)Nc2c(C)nc3nc[nH]n3c2=O)cc(OC)c1", "inhibition": "inactive"}, {"smiles": "O=[N+]([O-])c1ccc(SCCc2ccncc2)cc1", "inhibition": "inconclusive: 19%"}, {"smiles": "CC(C)(C)c1csc(NC(=O)c2ccc([N+](=O)[O-])cc2)n1", "inhibition": "inconclusive: 25%"}, {"smiles": "Cc1cc([N+](=O)[O-])ccc1-c1ccc(C(=O)Nc2cccc(-c3nc4ncccc4o3)c2)o1", "inhibition": "inconclusive: 25%"}, {"smiles": "CC(C)CN1C(=O)c2ccc(S(=O)(=O)c3ccc4c(c3)C(=O)N(CC(C)C)C4=O)cc2C1=O", "inhibition": "inactive"}, {"smiles": "O=C(c1ccc(N2CCC(NCC3(N4CCOCC4)CCCC3)CC2)cc1)N1CCCC(O)C1", "note": "(stereo not given)", "inhibition": "active: 31%"}, {"smiles": "Cc1cccc2cc(CO)c(N3CCCC(CO)(Cc4ccccc4)C3)nc12", "note": "(stereo not given)", "inhibition": "inconclusive: 13%"}, {"smiles": "Cc1occc1C(=O)N(C)C(Cc1ccccc1F)C1CCN(C(=O)[C@H]2C[C@@H]3C=C[C@H]2C3)CC1", "note": "(stereo not given in full)", "inhibition": "inactive"}, {"smiles": "CCc1nc(-c2c(-c3ccccc3)ncn2CCSc2ncn[nH]2)c(C)[nH]1", "inhibition": "inconclusive: 28%"}, {"smiles": "Cc1cccc2c1[nH]c1nc(NN)nnc12", "inhibition": "inconclusive: 14%"}, {"smiles": "Cc1ccc(OCCOCCN2CCOCC2)c(Br)c1", "inhibition": "inconclusive: 12%"}, {"smiles": "COc1ccc(CNC(=O)c2cc3c(=O)n4ccccc4nc3n2C)cc1", "inhibition": "inactive"}, {"smiles": "Cc1ccc(-c2noc([C@@H]3Cc4nc[nH]c4CN3C(=O)NC3CCCCC3)n2)cc1", "inhibition": "inconclusive: 15%"}, {"smiles": "CC(C)OCCCNC(=O)c1cc(Sc2ccc(F)cc2)nc2ccccc12", "inhibition": "inconclusive: 12%"}, {"smiles": "COc1ccc2nc(N3CCC(C(=O)NCCCN(C)C4CCCCC4)CC3)sc2c1", "inhibition": "inconclusive: 10%"}, {"smiles": "O=C(CCCn1c(=O)c2sccc2n(Cc2ccccc2Cl)c1=O)NCc1ccco1", "inhibition": "inconclusive: 13%"}, {"smiles": "NC(=O)CSc1nc2c(c(=O)n1-c1ccc(Br)cc1)SCC2", "inhibition": "inconclusive: 11%"}, {"smiles": "O=C(Cc1ccccc1)Nc1cccc(-c2nc3ccccc3o2)c1", "inhibition": "inactive"}, {"smiles": "CN(C)c1ccc(-c2ncnn2-c2ccc([N+](=O)[O-])cc2)cc1", "inhibition": "inconclusive: 17%"}]}]}
